## Results from one PubChem assay

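Luminescence from an EWS-FLI1 target-promoter (NR0B1) reporter, set against a CMV-promoter reporter, two days after silencing single genes in TC32 Ewing sarcoma cells. Each siRNA was applied at 20 nM. A z-score of the log NR0B1-over-CMV signal, less the median of siRNAs with the same seed; more negative means a stronger specific loss of the NR0B1 reporter.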

The strongest results of the screen are mostly left out here. Sequences are the guide (antisense) strand, without overhang.

siRNA,target gene,seed-corrected z-score
UGAGUUUGGAGGCAUAAAG,RAD17,0.3826
AUUGGGUCGUGCAAAGUCC,THRAP3P1,-0.8266
AUUAAUAGCAGCUCGAAGG,TLR10,-0.002576
AUUGUUGUAUCUGCGGUGG,PROL1,-1.368
UUCGGUCAAAGUAUGACAG,TJP1,-0.2842
UUAUAAAUACACGUGAUGC,CHSY1,0.02839
UAUCUGGACCACCAACUCU,BTNL9,0.4286
UUCUCUCCCACUCAACCGG,ASMTL,0.01828
AGUACUACAAUUGCCGGUC,USO1,-0.7685
UUUCUGUAGCUGCUCGUCC,CLTA,0.5415
UACAUUACCAUGACUGUCC,OR11H4,0.3475
UAAUAUGUAUGCAGAAACC,C1DP3,0.07079
UUUAGUGCAUAGGAAAAGC,LRRC8B,0.2283
UUUAUAGGCCCAGAGAUGG,NIPSNAP1,0.9051
UUUGGAGCCUGGUUCUCCC,FBF1,-0.1953
UUCUCUUCCGGUCAGAGCA,NRGN,-0.4792
UCUGUUGAAAUGACAAUGG,IMPG1,0.6881
AUUGAUAUAGGAUAUCUCC,OXSM,0.1966
UUCUGGUAGACGAGCUUGG,GNA11,-1.469
AUUAGUACACGAGUAACUC,ASB15,0.0003649
UGAUUUCUCAUAGGUAGGG,LINC00639,1.239
UUCUUAUUGAAGUCUAGGC,PPP2R2A,0.2948
UUCUUCAUAUGGAAUAGUC,NMRK1,-0.04392
UACUUGACUCGUGACCUGG,KTI12,0.03017
UUUUUAACAGUUGUCGUUU,CCNA1,0.01655
UUCUUGAUACACUACAAUC,KIAA1804,-0.5454
UAAGUUUCAAUACGUUGAC,MAPRE1,0.8533
UAUGGAUUCAACCUAGUCU,ANXA8L1,1.045
UUUCGGUGUUGUCAUAACC,CLASP1,-0.7797
UCAUAGCCCAGAUUGUUGC,LPL,-0.2165
UCUAAUUGUUCCAUCAUGC,WDR47,0.6828
UUCGUUUCUUUCAUACUUG,DSN1,0.1444
UAGAGAAGCACGGCUAUGC,FBXO18,-1.565
UCCUCGUCAAGAUCCUUCG,ABCG8,-0.2915
ACCAUAACAAGUUCUUCUC,LOC100288254,-1.023
AAUGGUUGAACUUCGGAGC,HTR2B,-0.8556
UGCCGAAUAAAGAAGCAGC,NCAM2,-0.3585
UCACCAUUAAGACUACGGC,TMEM225,0.1886
CAAAGUAGAUGGUGGCACC,AHNAK,-0.8921
UACUGAGCGGCAUCUUUCG,TMEM216,0.5296
UAUCAGUCAUCGAAUACAG,GYPE,0.5303
UAACUGGUGAAUAAGGUCC,PLK4,-0.1827
UAUAAAAUCUUUCCUGUAC,OTUD4,0.2396
UAAUUUGUCUAUGUACUGC,CCDC88C,-1.159
UAACUGAGAUGCCUUCGCC,PDCL,-0.5126
UAUAGAAUUCAAUUCCAUC,PLEK,0.1217

The last 5 entries again:

* UAACUGGUGAAUAAGGUCC against PLK4 | seed-corrected z-score -0.1827
* UAUAAAAUCUUUCCUGUAC against OTUD4 | seed-corrected z-score 0.2396
* UAAUUUGUCUAUGUACUGC against CCDC88C | seed-corrected z-score -1.159
* UAACUGAGAUGCCUUCGCC against PDCL | seed-corrected z-score -0.5126
* UAUAGAAUUCAAUUCCAUC against PLEK | seed-corrected z-score 0.1217

The results are deposited in PubChem (AID1159506; NCATS, 2015).